Structures can show the parent of a compound that is named as a salt.
How the values were obtained:
[1] = tested on: female rabbit hearts
[2] = molecular target: HERG channels expressed in HEK293 cells (Homo sapiens, UniProt Q12809)
Description: Human-ether-a-go-go related gene (HERG) encodes the cardiac rapidly activating delayed rectifier K^+ current (IKr). Inhibition of HERG K^+ current (IHERG) is a mechanism for drug-induced long QT syndrome.

By UniProt entry, the sequences of proteins in these tests, tags left out. Where a name states a change or a piece, a line headed by the entry shows the natural chain unless it says otherwise.
UniProt Q12809: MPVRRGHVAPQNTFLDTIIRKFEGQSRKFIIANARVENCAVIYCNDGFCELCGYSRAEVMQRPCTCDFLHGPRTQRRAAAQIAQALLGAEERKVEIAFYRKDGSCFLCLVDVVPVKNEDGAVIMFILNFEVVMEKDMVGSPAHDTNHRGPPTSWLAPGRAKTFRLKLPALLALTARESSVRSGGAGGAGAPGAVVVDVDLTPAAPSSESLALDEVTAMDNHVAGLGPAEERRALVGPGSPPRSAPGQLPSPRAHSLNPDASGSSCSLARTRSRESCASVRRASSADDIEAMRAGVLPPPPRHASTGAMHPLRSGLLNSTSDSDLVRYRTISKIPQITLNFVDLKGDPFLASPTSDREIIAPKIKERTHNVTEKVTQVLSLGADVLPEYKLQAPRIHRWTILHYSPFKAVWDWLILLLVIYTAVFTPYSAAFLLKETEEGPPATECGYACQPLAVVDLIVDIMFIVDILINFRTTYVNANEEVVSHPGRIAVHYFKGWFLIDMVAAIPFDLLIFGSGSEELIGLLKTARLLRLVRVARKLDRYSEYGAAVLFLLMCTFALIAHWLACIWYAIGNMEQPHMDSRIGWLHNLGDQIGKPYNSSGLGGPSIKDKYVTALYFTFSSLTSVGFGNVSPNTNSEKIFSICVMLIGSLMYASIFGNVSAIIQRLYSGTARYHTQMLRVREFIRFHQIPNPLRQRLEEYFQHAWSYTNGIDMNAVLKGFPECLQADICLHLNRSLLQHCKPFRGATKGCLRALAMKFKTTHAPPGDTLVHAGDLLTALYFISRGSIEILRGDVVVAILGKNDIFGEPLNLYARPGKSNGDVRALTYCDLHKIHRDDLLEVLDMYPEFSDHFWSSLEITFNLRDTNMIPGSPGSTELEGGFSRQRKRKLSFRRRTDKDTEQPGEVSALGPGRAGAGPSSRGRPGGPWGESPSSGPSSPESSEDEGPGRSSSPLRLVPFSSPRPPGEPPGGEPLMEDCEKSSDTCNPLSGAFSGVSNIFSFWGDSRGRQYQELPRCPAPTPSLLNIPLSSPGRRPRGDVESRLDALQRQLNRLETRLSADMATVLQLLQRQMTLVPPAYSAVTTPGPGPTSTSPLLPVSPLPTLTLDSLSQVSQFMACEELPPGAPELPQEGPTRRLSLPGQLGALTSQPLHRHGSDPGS

Row | SMILES | hearts with spontaneous or 3-sec pause triggered polymorphic ventricular tachycardias (TdP) [1] | percentage of hearts with spontaneous or pause triggered TdP [1] | effect on E-4031 block of IHERG [2]
1 | Cc1cccc(CCN2CCC(C(=O)c3ccc(NS(C)(=O)=O)cc3)CC2)n1 [E-4031, N-(4-[(1-[2-(6-methyl-2-pyridyl)ethyl]-4-piperidylcarbonyl]phenyl)methanesulfonamidedihydrochloride dehydrate] | 19 of 21 | 90% | –
2 | COc1ccccc1OCC(O)CN1CCN(CC(=O)Nc2c(C)cccc2C)CC1 (stereo not drawn) [ranolazine, N-(2,6-dimethylphenyl)-4-[2-hydroxy-3-(2-methoxyphenoxy)propyl]-1-piperazineacetamide] | – | – | antagonized

From patent publication US20080153840A1, “REDUCTION OF CARDIOVASCULAR SYMPTOMS” (priority 2006, published 2008)
